# Results taken from PMC5996148.
# Sequences of proteins named here, by UniProt entry; tags and fusion partners are left off. A change or cut given only in a name is not applied to a line headed by its entry.
# UniProt P57060: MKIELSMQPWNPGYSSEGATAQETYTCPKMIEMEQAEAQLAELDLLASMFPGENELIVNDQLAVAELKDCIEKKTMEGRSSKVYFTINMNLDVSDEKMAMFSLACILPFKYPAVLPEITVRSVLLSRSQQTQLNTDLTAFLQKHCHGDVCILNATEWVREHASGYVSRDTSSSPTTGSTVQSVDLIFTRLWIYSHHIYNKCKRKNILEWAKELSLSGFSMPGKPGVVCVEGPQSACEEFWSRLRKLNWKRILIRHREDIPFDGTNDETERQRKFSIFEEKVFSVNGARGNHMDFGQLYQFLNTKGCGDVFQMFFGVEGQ
# This is one part of the list. For some assays here: Construct or isoform of the protein are uncertain.
# Tests used:
# Experiment in all cases: protein microarray (ProtoArray v5.0), streptavidin-Alexa Fluor 647
# Settings in all cases: 3'-biotin; 20 mM Tris (pH 7.5), 5 mM MgCl2, 100 mM KCl, 0.1% Tween-20, A/T-rich and random oligonucleotide blockers; temperature not stated; high values mean tight binding
# [1] = target: RWDD2B (UniProt P57060)
# [2] = system: Rab9 effector protein with Kelch motifs (human)
# [3] = system: Rap1 GTPase-GDP dissociation stimulator 1 (human)
# [4] = system: Ras-related protein Rab-39B (human)
# [5] = system: Ras-related protein Rab-3D (human)
# [6] = system: Ras-related protein Rab-9B (human)
# [7] = system: Receptor expression-enhancing protein 1 (human)
# [8] = system: Receptor expression-enhancing protein 5 (human)
# [9] = system: Regenerating islet-derived protein 3 gamma (human)
# [10] = system: Regulator of G-protein signaling 3 (human)
# [11] = system: Regulator of G-protein signaling 8 (human)
# [12] = system: Retinoid-binding protein 7 (human)
# [13] = system: Retinol-binding protein 1 (human)
# [14] = system: Rho GTPase-activating protein 12 (human)
# [15] = system: Rho GTPase-activating protein 15 (human)
# [16] = system: Rho GTPase-activating protein 29 (human)
# [17] = system: Ropporin-1-like protein (human)
# [18] = system: Ropporin-1B (human)
# [19] = system: S100A14 (human)
# [20] = system: S100A2 (human)
sequence,measurement,setting,value
GGTGACAGGGGTATGGGGAGGGG [G4-2 biotinylated (Ct1)],binding signal,[1],6.09 z-score
same,binding signal,[2],-0.378 z-score
same,binding signal,[3],-0.382 z-score
same,binding signal,[4],-0.398 z-score
same,binding signal,[5],-0.39 z-score
same,binding signal,[6],-0.398 z-score
same,binding signal,[7],-0.38 z-score
same,binding signal,[8],-0.399 z-score
same,binding signal,[9],-0.401 z-score
same,binding signal,[10],5.68 z-score
same,binding signal,[11],4.59 z-score
same,binding signal,[12],-0.388 z-score
same,binding signal,[13],-0.387 z-score
same,binding signal,[14],4.46 z-score
same,binding signal,[15],3.87 z-score
same,binding signal,[16],-0.367 z-score
same,binding signal,[17],-0.38 z-score
same,binding signal,[18],-0.405 z-score
same,binding signal,[19],-0.398 z-score
same,binding signal,[20],-0.378 z-score

# A different layout for some results above.
sequence | measurement | setting | value
GGTGACAGGGGTATGGGGAGGGG [G4-2 biotinylated (Ct1)] | binding signal | [12] | -0.388 z-score
same | binding signal | [13] | -0.387 z-score
